Variants at the floor of the assay are shown more often than the library holds them.
Legend:
[1] = tested on: biotinyl-Trp-oxazolone; test: self-aminoacylation, catalytic enhancement (BWO) (fold over background); higher = more active; k-Seq, kA / k0A0; sequences stand for … in GGGAAUGGAUCCACAUCUACGAAUUC…UUCACUGCAGACUUGACGAAGCUG
Summary of the method: (§1)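 Working in 50 μL HEPES/NaCl/KCl/MgCl2/CaCl2 buffer with 5% acetonitrile at pH 6.9–7.0, mutagenized RNA pools (0.43 μM; 21-nt variable region) were reacted with 2–1250 μM of each biotinyl-aminoacyl-oxazolone for 90 minutes at room temperature. Streptavidin capture followed, with quantification by triplicate qPCR and Illumina sequencing. Catalytic enhancement is reported as median kA over the uncatalyzed rate, the low-activity peak of a bimodal Gaussian fit to the data.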

[2] = tested on: biotinyl-Leu-oxazolone; test: self-aminoacylation, catalytic enhancement (BLO) (fold over background); higher = more active; k-Seq, kA / k0A0; sequences stand for … in GGGAAUGGAUCCACAUCUACGAAUUC…UUCACUGCAGACUUGACGAAGCUG
Summary of the method: as §1

[3] = tested on: biotinyl-Val-oxazolone; test: self-aminoacylation, catalytic enhancement (BVO) (fold over background); higher = more active; k-Seq, kA / k0A0; sequences stand for … in GGGAAUGGAUCCACAUCUACGAAUUC…UUCACUGCAGACUUGACGAAGCUG
Summary of the method: as §1

[4] = tested on: biotinyl-Ile-oxazolone; test: self-aminoacylation, catalytic enhancement (BIO) (fold over background); higher = more active; k-Seq, kA / k0A0; sequences stand for … in GGGAAUGGAUCCACAUCUACGAAUUC…UUCACUGCAGACUUGACGAAGCUG
Summary of the method: as §1

[5] = tested on: biotinyl-Met-oxazolone; test: self-aminoacylation, catalytic enhancement (BMO) (fold over background); higher = more active; k-Seq, kA / k0A0; sequences stand for … in GGGAAUGGAUCCACAUCUACGAAUUC…UUCACUGCAGACUUGACGAAGCUG
Summary of the method: as §1

Row | Sequence | self-aminoacylation [1] | self-aminoacylation [2] | self-aminoacylation [3] | self-aminoacylation [4] | self-aminoacylation [5]
1 | AAAUUUGCUAAUAGUCGGAAG [Fam3.1 aminoacylation ribozyme variant] | 1.84 | 1.13 | 1.12 | 0.986 | 0.851
2 | AAGAUUGCAAAUAGUCGCAAG [Fam3.1 aminoacylation ribozyme variant] | 2.48 | 1.58 | 1.29 | 1.43 | 1.27
3 | AAGAUUGCUAAUAGUCACAAG [Fam3.1 aminoacylation ribozyme variant] | 1.69 | 1.02 | 1.12 | 1.17 | 1.31
4 | AAGCUUGCUAAUAGUUGCAAG [Fam3.1 aminoacylation ribozyme variant] | 1.72 | 1.71 | 1.21 | 1.65 | 1.16
5 | AAGGUUGCUACUAGUCGCAAG [Fam3.1 aminoacylation ribozyme variant] | 0.87 | 1.46 | 1.26 | 1.53 | 1.08
6 | AAGUCUGCUGAUAGUCGCAAG [Fam3.1 aminoacylation ribozyme variant] | 0.941 | 1.38 | 0.949 | 0.758 | 0.577
7 | AAGUGUGCUCAUAGUCGCAAG [Fam3.1 aminoacylation ribozyme variant] | 2.34 | 1.51 | 1.53 | 1.54 | 1.59
8 | AAGUUCGCUAAUAGUCGAAAG [Fam3.1 aminoacylation ribozyme variant] | 1.98 | 1.3 | 1.28 | 1.49 | 1.28
9 | AAGUUCGCUGAUAGUCGCAAG [Fam3.1 aminoacylation ribozyme variant] | 1.72 | 1.61 | 1.69 | 1.51 | 1.38
10 | AAGUUUAAUAAUAGUCGCAAG [Fam3.1 aminoacylation ribozyme variant] | 1.81 | 1.67 | 1.43 | 1.44 | 1.58
11 | AAGUUUACUAAUAGUCGCACG [Fam3.1 aminoacylation ribozyme variant] | 1.71 | 1.04 | 1.18 | 1.3 | 0.986
12 | AAGUUUACUAAUAGUUGCAAG [Fam3.1 aminoacylation ribozyme variant] | 1.9 | 1.65 | 1.29 | 1.38 | 1.26
13 | AAGUUUCCUAAUAGUUGCAAG [Fam3.1 aminoacylation ribozyme variant] | 1.35 | 1.43 | 1.4 | 1.66 | 1.58
14 | AAGUUUCCUAAUGGUCGCAAG [Fam3.1 aminoacylation ribozyme variant] | 1.3 | 1.77 | 1.31 | 1.24 | 1.41
15 | AAGUUUCCUACUAGUCGCAAG [Fam3.1 aminoacylation ribozyme variant] | 1.49 | 1.64 | 1.57 | 1.63 | 1.93
16 | AAGUUUCCUAGUAGUCGCAAG [Fam3.1 aminoacylation ribozyme variant] | 0.668 | 1.06 | 1.44 | 1.12 | 1.2
17 | AAGUUUGAUAAUAGUCGCAAU [Fam3.1 aminoacylation ribozyme variant] | 1.18 | 1.02 | 1.07 | 1.19 | 1.03
18 | AAGUUUGCGAAUAGUGGCAAG [Fam3.1 aminoacylation ribozyme variant] | 0.921 | 0.622 | 0.622 | 0.769 | 0.882
19 | AAGUUUGCUAACAGUCGCAGG [Fam3.1 aminoacylation ribozyme variant] | 1.41 | 1.2 | 1.28 | 1.21 | 1.03

Row | Sequence | self-aminoacylation [1] | self-aminoacylation [2] | self-aminoacylation [3] | self-aminoacylation [4] | self-aminoacylation [5]
20 | AAGUUUGCUAAUAGCCGCAAU [Fam3.1 aminoacylation ribozyme variant] | 1.69 | 1.92 | 1.41 | 1.32 | 1.45
21 | AAGUUUGCUAAUAGUAACAAG [Fam3.1 aminoacylation ribozyme variant] | 1.41 | 1.12 | 1.1 | 1.19 | 1.52
22 | AAGUUUGCUCAUCGUCGCAAG [Fam3.1 aminoacylation ribozyme variant] | 1.73 | 1 | 0.944 | 1.06 | 1.07
23 | AAGUUUGUUAAAAGUCGCAAG [Fam3.1 aminoacylation ribozyme variant] | 1.78 | 1.48 | 1.31 | 1.76 | 1.32
24 | AAGUUUUCUAAUAGUCGCUAG [Fam3.1 aminoacylation ribozyme variant] | 1.61 | 1.39 | 1.45 | 1.44 | 1.41
25 | AAGUUUUCUCAUAGUCGCAAG [Fam3.1 aminoacylation ribozyme variant] | 2 | 1.6 | 1.35 | 1.59 | 1.43
26 | AAUUUUGCUAAGAGUCGCAAG [Fam3.1 aminoacylation ribozyme variant] | 1.52 | 1.92 | 1.58 | 1.91 | 1.97
27 | ACACACUUCAAGCAAUUGGUC [Fam1B.1 aminoacylation ribozyme variant] | 1.29 | 0.945 | 1.17 | 1.09 | 1.01
28 | ACUACCCUGGUCAUCUAGUGA [Fam2.1 aminoacylation ribozyme variant] | 7.62 | 7.72 | 3.97 | 3.86 | 7.5
29 | ACUCACCUAGGUCAACGGGUG [Fam2.2 aminoacylation ribozyme variant] | 3.14 | 2.29 | 2.22 | 1.94 | 2.67
30 | ACUCACCUAGGUCAUAGGGUG [Fam2.2 aminoacylation ribozyme variant] | 1.58 | 1.39 | 1.36 | 1.31 | 1.57
31 | AGGUCUGCUAAUAGUCGCAAG [Fam3.1 aminoacylation ribozyme variant] | 9.95 | 1.08 | 1.17 | 1.36 | 2.08
32 | AGGUUUGUUAAUAGUCGCAAG [Fam3.1 aminoacylation ribozyme variant] | 1.91 | 1.81 | 1.87 | 1.86 | 1.86
33 | AUAACCCUGGUCGUCGAGUGA [Fam2.1 aminoacylation ribozyme variant] | 1.28 | 1.3 | 0.939 | 1.01 | 1.01
34 | AUCUUUGCUAAUAGUCGCAAG [Fam3.1 aminoacylation ribozyme variant] | 1.96 | 1.61 | 1.4 | 1.83 | 1.74
35 | AUGUUUGCUCAUAGUCGCAAG [Fam3.1 aminoacylation ribozyme variant] | 1.73 | 1.32 | 1.4 | 1.5 | 1.48
36 | AUUACCCUGAUCAUCGAGGGA [Fam2.1 aminoacylation ribozyme variant] | 2.33 | 1.87 | 1.21 | 1.09 | 1.02
37 | AUUACCCUGGCCAUCGAAUGA [Fam2.1 aminoacylation ribozyme variant] | 0.331 | 1.4 | 1.31 | 1 | 0.928
38 | AUUACCCUGGUCAACGUGUGA [Fam2.1 aminoacylation ribozyme variant] | 1.29 | 1.37 | 1.35 | 1.12 | 1.33

Row | Sequence | self-aminoacylation [1] | self-aminoacylation [2] | self-aminoacylation [3] | self-aminoacylation [4] | self-aminoacylation [5]
39 | AUUACCCUGGUCAUCGUGUGU [Fam2.1 aminoacylation ribozyme variant] | 0.854 | 1.22 | 1.17 | 0.802 | 1.2
40 | AUUACCCUGGUCAUGGAGUGU [Fam2.1 aminoacylation ribozyme variant] | 2.57 | 2.73 | 1.98 | 1.72 | 2.46
41 | AUUACCCUGGUCGUCGAGGGA [Fam2.1 aminoacylation ribozyme variant] | 1.51 | 0.979 | 1.64 | 1.26 | 1.03
42 | AUUACCCUGGUCGUCGUGUGA [Fam2.1 aminoacylation ribozyme variant] | 1.87 | 1.73 | 1.18 | 1.02 | 1.54
43 | AUUACCCUGGUUAUCGAGGGA [Fam2.1 aminoacylation ribozyme variant] | 1.79 | 0.955 | 1.16 | 1.55 | 1.4
44 | AUUACCCUGUUCAUCAAGUGA [Fam2.1 aminoacylation ribozyme variant] | 1.49 | 1.5 | 1.34 | 1.4 | 1.65
45 | AUUACCGUGGCCAUCGAGUGA [Fam2.1 aminoacylation ribozyme variant] | 8.11 | 5.84 | 3.89 | 3.2 | 4.71
46 | AUUAGCCUGGUCAUCGAGUGC [Fam2.1 aminoacylation ribozyme variant] | 1.19 | 1.76 | 1.33 | 1.23 | 1.54
47 | AUUAGCUUGGUCAUCGAGUGA [Fam2.1 aminoacylation ribozyme variant] | 1.39 | 1.97 | 1.61 | 1.99 | 1.76
48 | AUUCACCCAGGUCGUCGGGUG [Fam2.2 aminoacylation ribozyme variant] | 1.93 | 2.84 | 1.8 | 1.9 | 1.91
49 | AUUCACCGAGGCCAUCGGGUG [Fam2.2 aminoacylation ribozyme variant] | 4.78 | 6.39 | 4.36 | 3.16 | 5.31
50 | AUUCACCUAGCUCGUCGGGUG [Fam2.2 aminoacylation ribozyme variant] | 1.18 | 1.19 | 1.53 | 1.21 | 1.37
51 | AUUCACCUAGGUCAUCCGGUC [Fam2.2 aminoacylation ribozyme variant] | 1.28 | 1.71 | 1.35 | 1.25 | 1.33
52 | AUUCACCUAGGUCGUCGGGUU [Fam2.2 aminoacylation ribozyme variant] | 1.31 | 1.69 | 1.71 | 1.57 | 1.53
53 | AUUCACCUAGGUCUUCGGGAG [Fam2.2 aminoacylation ribozyme variant] | 1.11 | 1.86 | 1.76 | 1.59 | 1.17
54 | AUUCACCUAGGUCUUCGUGUG [Fam2.2 aminoacylation ribozyme variant] | 0.898 | 1.43 | 1.1 | 1.05 | 1.21
55 | AUUCACCUCGGUCAACGGGUG [Fam2.2 aminoacylation ribozyme variant] | 3.36 | 5.39 | 2.82 | 2.44 | 3.98
56 | AUUGACCUAGGUCAUCGGGUC [Fam2.2 aminoacylation ribozyme variant] | 1.55 | 1.39 | 1.29 | 1.3 | 1.52
57 | AUUGACCUAUGUCAUCGGGUG [Fam2.2 aminoacylation ribozyme variant] | 5.17 | 7.74 | 3.64 | 3.81 | 5.68
